Experimental data taken from US20140287471A1, “VARIANT CBH I POLYPEPTIDES WITH REDUCED PRODUCT INHIBITION” (BP CORPORATION NORTN AMERICA INC., priority 2011, published 2014).
Positions count from the first letter of the chain named.

B1: 268— Phe (protein, UniProt P62694 18-513, looked up, variant R268F)
Exoglucanase 1: QSACTLQSETHPPLTWQKCSSGGTCTQQTGSVVIDANWRWTHATNSSTNCYDGNTWSSTLCPDNETCAKNCCLDGAAYASTYGVTTSGNSLSIGFVTQSAQKNVGARLYLMASDTTYQEFTLLGNEFSFDVDVSQLPCGLNGALYFVSMDADGGVSKYPTNTAGAKYGTGYCDSQCPRDLKFINGQANVEGWEPSSNNANTGIGGHGSCCSEMDIWEANSISEALTPHPCTTVGQEICEGDGCGGTYSDNFYGGTCDPDGCDWNPYRLGNTSFYGPGSSFTLDTTKKLTVVTQFETSGAINRYYVQNGVTFQQPNAELGSYSGNELNDDYCTAEEAEFGGSSFSDKGGLTQFKKATSGGMVLVMSLWDDYYANMLWLDSTYPTNETSSTPGAVRGSCSTSSGVPAQVESQSPNAKVTFSNIKFGPIGSTGNPSGGNPPGGNRGTTTTRRPATTTGSSPGPTQSHYGQCGGIGYSGPTVCASGTTCQVLNPYYSQCL
B2: 411— Asp (protein, UniProt P62694 18-513, looked up, variant R411D)
Exoglucanase 1: B1 Exoglucanase 1 with F251R, R394D
B3: 268_+411A Pro (protein, UniProt P62694 18-513, looked up, variant R268P R411A)
Exoglucanase 1: B1 Exoglucanase 1 with F251P, R394A
B4: 268A+411— Ala (protein, UniProt P62694 18-513, looked up, variant R268A R411A)
Exoglucanase 1: B1 Exoglucanase 1 with F251A, R394A
B5: 268A+411— Trp (protein, UniProt P62694 18-513, looked up, variant R268A R411W)
Exoglucanase 1: B1 Exoglucanase 1 with F251A, R394W
B6: 268_+411A Val (protein, UniProt P62694 18-513, looked up, variant R268V R411A)
Exoglucanase 1: B1 Exoglucanase 1 with F251V, R394A
B7: 268— Trp (protein, UniProt P62694 18-513, looked up, variant R268W)
Exoglucanase 1: B1 Exoglucanase 1 with F251W
B8: 268— Asp (protein, UniProt P62694 18-513, looked up, variant R268D)
Exoglucanase 1: B1 Exoglucanase 1 with F251D
B9: 268— Asn (protein, UniProt P62694 18-513, looked up, variant R268N)
Exoglucanase 1: B1 Exoglucanase 1 with F251N
B10: 268— Thr (protein, UniProt P62694 18-513, looked up, variant R268T)
Exoglucanase 1: B1 Exoglucanase 1 with F251T
B11: 268A+411— Leu (protein, UniProt P62694 18-513, looked up, variant R268A R411L)
Exoglucanase 1: B1 Exoglucanase 1 with F251A, R394L
B12: 268_+411A Trp (protein, UniProt P62694 18-513, looked up, variant R268W R411A)
Exoglucanase 1: B1 Exoglucanase 1 with F251W, R394A
B13: 268— Glu (protein, UniProt P62694 18-513, looked up, variant R268E)
Exoglucanase 1: B1 Exoglucanase 1 with F251E
B14: 268A+411— Met (protein, UniProt P62694 18-513, looked up, variant R268A R411M)
Exoglucanase 1: B1 Exoglucanase 1 with F251A, R394M
B15: 268A+411— Asp (protein, UniProt P62694 18-513, looked up, variant R268A R411D)
Exoglucanase 1: B1 Exoglucanase 1 with F251A, R394D
B16: 268_+411A Ala (protein, UniProt P62694 18-513, looked up, variant R268A R411A)
Exoglucanase 1: B1 Exoglucanase 1 with F251A, R394A
B17: 268A+411— Gly (protein, UniProt P62694 18-513, looked up, variant R268A R411G)
Exoglucanase 1: B1 Exoglucanase 1 with F251A, R394G
B18: 268_+411A Ile (protein, UniProt P62694 18-513, looked up, variant R268I R411A)
Exoglucanase 1: B1 Exoglucanase 1 with F251I, R394A
B19: 268A+411— Val (protein, UniProt P62694 18-513, looked up, variant R268A R411V)
Exoglucanase 1: B1 Exoglucanase 1 with F251A, R394V
B20: 268— His (protein, UniProt P62694 18-513, looked up, variant R268H)
Exoglucanase 1: B1 Exoglucanase 1 with F251H
B21: 268— Cys (protein, UniProt P62694 18-513, looked up, variant R268C)
Exoglucanase 1: B1 Exoglucanase 1 with F251C
B22: 268A+411— Glu (protein, UniProt P62694 18-513, looked up, variant R268A R411E)
Exoglucanase 1: B1 Exoglucanase 1 with F251A, R394E
B23: 268_+411A Arg (protein, UniProt P62694 18-513, looked up, variant R411A)
Exoglucanase 1: B1 Exoglucanase 1 with F251R, R394A
B24: 268A+411— Cys (protein, UniProt P62694 18-513, looked up, variant R268A R411C)
Exoglucanase 1: B1 Exoglucanase 1 with F251A, R394C
B25: 411— Cys (protein, UniProt P62694 18-513, looked up, variant R411C)
Exoglucanase 1: B1 Exoglucanase 1 with F251R, R394C
B26: 268— Tyr (protein, UniProt P62694 18-513, looked up, variant R268Y)
Exoglucanase 1: B1 Exoglucanase 1 with F251Y
B27: 268_+411A Gln (protein, UniProt P62694 18-513, looked up, variant R268Q R411A)
Exoglucanase 1: B1 Exoglucanase 1 with F251Q, R394A
B28: 411— Ser (protein, UniProt P62694 18-513, looked up, variant R411S)
Exoglucanase 1: B1 Exoglucanase 1 with F251R, R394S
B29: 411— Tyr (protein, UniProt P62694 18-513, looked up, variant R411Y)
Exoglucanase 1: B1 Exoglucanase 1 with F251R, R394Y
B30: 268— Ser (protein, UniProt P62694 18-513, looked up, variant R268S)
Exoglucanase 1: B1 Exoglucanase 1 with F251S
B31: 268— Ala (protein, UniProt P62694 18-513, looked up, variant R268A)
Exoglucanase 1: B1 Exoglucanase 1 with F251A
B32: 268A+411— Ile (protein, UniProt P62694 18-513, looked up, variant R268A R411I)
Exoglucanase 1: B1 Exoglucanase 1 with F251A, R394I
B33: 411— Glu (protein, UniProt P62694 18-513, looked up, variant R411E)
Exoglucanase 1: B1 Exoglucanase 1 with F251R, R394E

Test: CBH I protein quantification by RP-HPLC
Settings: CBH I variant protein level in sample
Description: CBH I protein concentrations in supernatants were quantified using RP-HPLC. The system used was an Agilent 1100 series model, equipped with quaternary pump (connected to reservoirs A and B, where reservoir A contained water with 0.1% trifluoroacetic acid and reservoir B contained acetonitrile with 0.1% trifluoroacetic acid), a diode array detector (monitored at 225 nm and 280 nm), and a fluorescence detector (monitored at ex/em 280/340 nm). An Agilent Zorbax 300SB-C3 (5 μM, 4.6×150 mm) was used to separate samples using a 20 minute method (30-50% B over 10 minutes; 100% B for 5 minutes; 30% B for 5 min; at 60° C. at a flow rate of 1 mL/min). CBH I was identified by a retention time at 7.8-8.2 minutes and quantitated by area. Concentrations were determined by reference to a standard curve generated with a commercial CBH I (E-CBH I from Megazymes).

Row | Molecule | RPLC Quantification
1 | B1 | 2.5 µg/mL
2 | B2 | 2.6 µg/mL
3 | B3 | 11.2 µg/mL
4 | B4 | 17.0 µg/mL
5 | B5 | 2.5 µg/mL
6 | B6 | 10.6 µg/mL
7 | B7 | 7.0 µg/mL
8 | B8 | 7.8 µg/mL
9 | B9 | 0.5 µg/mL
10 | B10 | 5.5 µg/mL
11 | B11 | 1.6 µg/mL
12 | B12 | 11.8 µg/mL
13 | B13 | 6.3 µg/mL
14 | B14 | 11.5 µg/mL
15 | B15 | 5.4 µg/mL
16 | B16 | 14.4 µg/mL
17 | B17 | 7.7 µg/mL

Row | Molecule | RPLC Quantification
18 | B18 | 10.3 µg/mL
19 | B19 | 6.6 µg/mL
20 | B20 | 17.5 µg/mL
21 | B21 | 6.7 µg/mL
22 | B22 | 5.3 µg/mL
23 | B23 | 7.0 µg/mL
24 | B24 | 13.7 µg/mL
25 | B25 | 18.4 µg/mL
26 | B26 | 9.8 µg/mL
27 | B27 | 0.9 µg/mL
28 | B28 | 10.6 µg/mL
29 | B29 | 13.4 µg/mL
30 | B30 | 8.3 µg/mL
31 | B31 | 16.9 µg/mL
32 | B32 | 2.6 µg/mL
33 | B33 | 6.1 µg/mL
